Reference: publication PMC10163288
The list shows a part of the results.

B1: il10ra_site1_sap_15_mot_HHH_b2_07596_000000080_0001_23_39_H_._HHH_b1_03720_0001_0000100009_0000001_0_0001 (protein)
chain: SSSSDEEEKEVEEILEEIERLIREGNPEEAARLIQELLQLIYRIKNPELLRELWELIRELASSSS
B2: il10ra_site1_normal_mot_ems_3hM_235_000000244_0001_46_64_H_._HHH_b2_07413_0001_0000100001_0000001_0 (protein)
chain: SSSSDVLEEVWELSRKVAELIRNGNPEEARELVEEIEELAKEFNNELVEFIARQLKLLIDSSSSS
B3: il10ra_site1_sap_25_mot_HHH_b2_04327_000000030_0001_41_55_H_._HHH_b2_00910_af2_0001_0000100003_0000001_0_0001 (protein)
chain: SSSSDKEKRELVEAAVRMAKQFSEEVVKFLLEAAEILAEDLNDPELRKLVEELEEYLEELSSSSS
B4: il10ra_site1_sap_7_mot_HHH_b2_00943_af2_000000149_0001_1_17_H_._HHH_b1_05509_0001_0000300007_0000001_0_0001_af2pred_0001 (protein)
chain: SSSSSSEEQERSLRHLIKAAKLIEDPELAKLSLRVAKRIAEAAGDEELLKEIEELLEELNSSSSS
B5: il10ra_site1_normal_mot_HHH_b1_07743_af2_000000164_0001_42_55_H_._HHH_b2_01433_0001_0000200017_0000001_0_af2pred_0001 (protein)
chain: SSSSSEEARRVARLLIEAIELAEKGNPEEAREVLEEAREIAEEAGDDILRATVEVARELVESSSS
B6: il10ra_site1_normal_mot_HHH_b2_02736_000000092_0001_22_38_H_._HHH_b2_05333_af2_0001_0000500039_0000001_0 (protein)
chain: SSSSSSDELEELEEKLEEAVERGDTQLIYRLLRRLIELARELRDEEAQELARRVVRRISSSSSSS
B7: il10ra_site1_sap_13_mot_HHH_b1_05860_000000142_0001_1_19_H_._HHH_b2_03829_0001_0000100004_0000001_0_0001 (protein)
chain: SSSSSEELEEAFRALRRLAELAHEGNPEEFKELAEKAQEIVEELGNRLLEVQLEFLKRRVLSSSS
B8: il10ra_site1_sap_19_mot_HHH_b2_04275_000000272_0001_20_36_H_._HHH_b2_06282_0001_0000300024_0000001_0_0001 (protein)
chain: SSSSDRAHEVYELSREAAELLREGDPEEARKLLEEAEELAEEAGSFSTLFSVRHMLKDLNSSSSS
B9: il10ra_site1_sap_31_mot_HHH_b2_07521_000000141_0001_20_37_H_._HHH_b2_03573_0001_0000200010_0000001_0_0001_af2pred_0001 (protein)
chain: SSSSSSSSSEEIFKLLREALEIDDPEEAREVVEEALRLAEEAGNLSFRRSAEFILEQLSSSSSSS
B10: il10ra_site1_sap_21_mot_HHH_b2_00293_000000095_0001_1_20_H_._HHH_eva_0545_0001_0000100005_0000002_0_0001 (protein)
chain: SSSSSDQQERVFREVAKLIERALRVSEEEAEELLERAKELAEELGNEYLRRAIEHAARARSSSSS
B11: il10ra_site1_sap_32_mot_HHH_b1_02492_000000051_0001_1_21_H_._HHH_b2_00563_af2_0001_0000200008_0000001_0_0001 (protein)
chain: SSSSDAHELYELLREAAELLADGNPEEARKLLEEAQEIAEEANNRVLLHTIRYVLEQVERASSSS
B12: il10ra_site1_sap_22_mot_HHH_b2_00273_000000062_0001_23_39_H_._HHH_b1_04796_af2_0002_0000200014_0000001_0_0001 (protein)
chain: SSSSDLSQEVFELSEEAAKLLHEGDPEEAREILEEAERLAEEAGNDNFKFAVRFLLKLLNSSSSS
B13: il10ra_site1_normal_mot_8756ee2cf497b5429c717dfc0c0bcfd6_0001_000000186_0001_1_13_H_._HHH_b2_05202_0001_0000200009_0000001_0_af2pred_0001 (protein)
chain: SSSSSSEESERIAELLRKALHISDEEEVREILEEARELAEEANSLNLRAVIEYLQKLLDSSSSSS
B14: il10ra_site1_sap_16_mot_HHH_b2_03328_af2_000000127_0001_1_19_H_._HHH_b2_04136_0001_0000100005_0000001_0_0001 (protein)
chain: SSSSDQERLEVRAILWFAKFTRNPDARRALLEAAKRIAEEAGDPEAEELVREVEEELERRSSSSS
B15: il10ra_site1_sap_12_mot_3fa423bb51912141a3931b06376c3fac_0001_af2_000000012_0001_37_50_H_._261ae5509348a94b37e27fd3a74e589d_0001_1_0001_0000200005_0000001_0_000 … (protein)
chain: SSSSSSDAEEEVERLLEEAKHVSRHRASHLLIQAYAIANQRNNEELLRLVEEVAKERISSSSSSS
B16: il10ra_site1_sap_4_mot_HHH_b1_06788_af2_000000238_0001_19_36_H_._HHH_b1_03008_af2_0001_0000100001_0000001_0_0001_af2pred_0001 (protein)
chain: SSSSDDEEFERVAELLRRVNELARRGNPEEAERLLEEAKELAEEANNPYLELSIRFAEKRNSSSS
B17: il10ra_site1_normal_mot_8756ee2cf497b5429c717dfc0c0bcfd6_0001_000000186_0001_1_13_H_._HHH_b1_04220_af2_0001_0000300023_0000001_1_af2pred_0001 (protein)
chain: SSSSSEEAREIVRLLRRIAELLAEGDDEEARELLEEAEELARETNDLIAEAVIRFLLKQVESSSS
B18: il10ra_site1_normal_mot_HHH_b2_01397_000000078_0001_23_39_H_._118502477c40609e6006f550458cdfaf_0001_0001_0000400042_0000002_0_af2pred_0001 (protein)
chain: SELEEEFEKALEKGTVEEFLRRLLEELEKEGDPRSALAVRFAIRVVEHGNPEVAKLFLKAIVDLR
B19: il10ra_site1_normal_mot_HHH_b2_07579_000000077_0001_1_19_H_._HHH_b1_05859_0001_0000100017_0000001_0_af2pred_0001 (protein)
chain: SSSSSLEEELIKLIRKAAELLSEGNPEEAQEVVEEAIELARELGNELALKIAEALLRQIESSSSS
B20: il10ra_site1_normal_mot_b26a303360aa2756ef5b79665ce52f45_0001_000000179_0001_1_11_H_._HHH_b2_08001_af2_0001_0000900021_0000001_0_af2pred_dldesign_0_af2pred (protein)
chain: SSSSSSSEAEKIVELIRKASELEDKEEAKKVLEEALELAKKAKNPVYVYAVEYALSQLSSSSSSS
B21: il10ra_site1_sap_28_mot_HHH_b2_07488_000000216_0001_1_17_H_._HHH_b2_03105_0001_0000100001_0000002_0_0001_af2pred_0001 (protein)
chain: SSSSSEEVFKRVAELLAEASRAARKDPEKAEEILEEARQLAEENNDPALKYAVEFIEERVSSSSS
B22: il10ra_site1_sap_11_mot_HHH_b1_05357_000000034_0001_23_39_H_._HHH_b2_08187_0002_0000100013_0000001_0_0001 (protein)
chain: SSSSDEDERYLRLALRFARWLIEVGDERAARRILEAIRDIAKRANDEEALEEAQRLLEEVGSSSS
B23: il10ra_site1_sap_36_mot_HHH_b2_02736_000000092_0001_22_38_H_._HHH_b1_05500_af2_0001_0000400033_0000001_0_0001_af2pred_dldesign_0_af2pred (protein)
chain: SPELDRIIELYEAGKPEEAALLAAALRRRAREAGDPERVAGLFEILCLLYAGKPEEARALAERLS
B24: il10ra_site1_normal_mot_HHH_b2_01310_000000089_0001_41_55_H_._HHH_b2_07107_af2_0003_0000100001_0000001_0 (protein)
chain: SSSSDEELQELFEEARELIENGNPEEAVELLQRLVQLAFRLQDEEALRLVLELAELLRELSSSSS
B25: il10ra_site1_normal_mot_HHH_b2_04275_000000272_0001_20_36_H_._HHH_b1_02719_af2_0001_0000100005_0000001_0 (protein)
chain: SSSSSSERIYELLRKLSELIHEGNEEEAQEVIEELRELIEKNNNDVARAQLEFLERHLEGSSSSS
B26: il10ra_site1_sap_19_mot_HHH_b1_00123_000000192_0001_20_37_H_._HHH_b1_05978_af2_0001_0000600017_0000001_0_0001 (protein)
chain: SSSSSSDVEELIEEAEELLEEGDPRKAIRALQEAVELAFRLGDEELLRRIWELAKRVASSSSSSS
B27: il10ra_site1_sap_25_mot_HHH_b2_04050_000000291_0001_1_20_H_._HHH_b1_05968_af2_0001_0000100006_0000001_0_0001 (protein)
chain: SSSSRWVERSFEAARHLLEAGDIEYAKLAIRFLEALAEATNDPEARELVEELKELLEEIEKSSSS
B28: il10ra_site1_normal_mot_82a85cb19d3401380e8a5036dcc53c2d_0001_af2_000000275_0001_3_13_H_._HHH_b2_06737_0001_0000100007_0000001_0_af2pred_0001 (protein)
chain: SSSSSEDEERVEELLEEAKEIEDRERRYQVLLEAYLLALQSNDPELEELVKRVAVELSEESSSSS
B29: il10ra_site1_sap_20_mot_HHH_b2_02053_af2_000000006_0001_3_19_H_._HHH_b2_05169_0001_0000100005_0000001_0_0001_af2pred_0001 (protein)
chain: SSSSSSESEELVRLIREAVKLLLDGNPEEAQRVAEEAFELAEEAGNLNLLAVIEYLLRRISSSSS
B30: il10ra_site1_sap_21_mot_HHH_b2_04679_000000194_0001_21_38_H_._HHH_b2_05720_0001_0000200026_0000001_0_0001 (protein)
chain: SSSADEHYEEIERVVQEADELYRNGNPEEAEELLEEAAKRAEEAGDWVLLQVLEMLLRLIRSSSS
B31: il10ra_site1_sap_19_mot_HHH_b1_06798_000000292_0001_1_19_H_._HHH_b1_00992_0001_0000100011_0000001_0_0001 (protein)
chain: SSSSTVEESLKVTLELIEQLLRLGDRERAREIIEILKKYIEEARDEEAREILEKLEEEVNSSSSS
B32: il10ra_site1_sap_20_mot_HHH_b1_05056_000000217_0001_1_20_H_._HHH_b1_04481_0001_0000300038_0000001_0_0001 (protein)
chain: SSSSSEEAEEVWEILREVLELLAQGDPEEAEELVRKALELAEELGDFIFERSARMLLELARSSSS
B33: il10ra_site1_normal_mot_HHH_b2_04275_000000272_0001_20_36_H_._HHH_b1_02719_af2_0001_0000100005_0000001_0_af2pred_dldesign_0_af2pred (protein)
chain: SSSSSNEEVYRLLREYAELLAAGKREEAAKVRKELKELIEKLNNEVAKYTLDYLERHELESSSSS
B34: il10ra_site1_sap_25_mot_HHH_b2_07388_000000275_0001_18_35_H_._7abaf38a3307e851c9e6880adce6b300_0001_1_0001_0000100003_0000001_0_0001_af2pred_0001 (protein)
chain: SSSSDEEEEEVEKLLEELEKLLERGDREEVFRLFREAARIIAELRDEEAFRRLQELLKRLFSSSS
B35: il10ra_site1_sap_21_mot_HHH_b1_03859_af2_000000004_0001_44_57_H_._HHH_b1_03368_af2_0001_0000300008_0000001_0_0001_1 (protein)
chain: SSSSTDEVYERLEELIKEAHEAYRNNDEELLRELAEEIEELAEKFNNWAVRAVAEVVKKLGSSSS
B36: il10ra_site1_sap_21_mot_HHH_b2_00033_000000036_0001_41_54_H_._HHH_b1_05655_0001_0000600039_0000002_0_0001 (protein)
chain: SSSSDENEEALKLAREAVEAALRGNPEEAQELLEEAEELARKGGNERLVRMIERLLETLKSSSSS
B37: il10ra_site1_sap_18_mot_HHH_b1_03531_000000273_0001_41_54_H_._HHH_b2_02783_0001_0000200007_0000002_0_0001 (protein)
chain: SSSSSKEEEQLRLSLEFAKWLLEEGDPEAARRIAEAALDIARRLGDEELEEEIEELLREIGSSSS

The binders below were run against il10ra, Q13651 (assay: yeast display titration).

Apparent Kd, inactive:
B1 no binding seen
B2 no binding seen
B3 no binding seen
B4 no binding seen
B5 no binding seen
B6 > 1.27 µM
B7 no binding seen
B8 no binding seen
B9 no binding seen
B10 no binding seen
B11 no binding seen
B12 no binding seen
B13 no binding seen
B14 no binding seen
B15 no binding seen
B16 no binding seen
B17 no binding seen
B18 no binding seen
B19 no binding seen
B20 no binding seen
B21 no binding seen
B22 no binding seen
B23 no binding seen
B24 no binding seen
B25 no binding seen
B26 no binding seen
B27 no binding seen
B28 no binding seen
B29 no binding seen
B30 no binding seen
B31 no binding seen
B32 no binding seen
B33 no binding seen
B34 no binding seen
B35 no binding seen
B36 no binding seen
B37 no binding seen

2 neighbouring entries from above, for reference:
Apparent Kd, inactive:
B10 no binding seen
B11 no binding seen
